From PMC13266999, “Designing Antibiotics with Inherent Resistance to Efflux as a Strategy to Revive Discovery against Multidrug-Resistant Pathogens” (Journal of Medicinal Chemistry, 2026)

System: NorA overexpressing strain NCTC 13616
Assay: Reserpine growth (efflux inhibition) assay
Conditions: 0.5x MIC with vs without reserpine

O=C(O)c1cn(C2CC2)c2cc(N3CCNCC3)c(F)cc2c1=O [Ciprofloxacin, ciprofloxacin, reference compound]
efflux liability in reserpine assay: CIP is a substrate of NorA
